Source: publication doi:10.1101/2021.02.16.431366
Results are given in words; binding and its absence hold for the method and conditions named. Binding seen in cells or lysates may run through a third protein. Some entries that bind do so weakly or less than the wild type.

Columns and labels:
[1] = biological target: T1, TRPV5 distal helix peptide (rabbit); experiment: pull-down
T1 sequence (peptide, Biotin-C6 on the N-terminus): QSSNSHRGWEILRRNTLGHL

[2] = biological target: T2, TRPV5 proximal helix peptide (rabbit); experiment: pull-down
T2 sequence (peptide, Biotin-C6 on the N-terminus): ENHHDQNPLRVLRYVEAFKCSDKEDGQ

Row | binding [1] | binding [2] | Substance
1 | binds |  | GST-C-lobe (from UniProt P0DP29 81-149) (domain or fragment)
2 | binds weakly | binds weakly | GST-N-lobe (from UniProt P0DP29 1-80) (domain or fragment)
